Several values for one entry are separate records, joined by “and”; a condition that tells them apart may be missing. Equal values may be shown once. This is one part of the list. Each value is one well over the wells without odorant, computed here; the data are noisy.

Among the test systems are OR2F2 A98V clone 1087; OR2G2 clone 1385; OR2G3 clone 1328; OR2G3 clone 1382; OR2G6 clone 1487; OR2H1 clone 1393; OR2H2 clone 1066; OR2J2 T111A clone 1073.
What all share (assay): odorant receptor activation (CRE luciferase / Renilla) (fold of no-odor wells); higher = more activation
Holding throughout (settings): 100 µM

Assay [1] relates to OR2G2 P24A/V120L/R236G clone 1349.
In assay [2] the test system is OR2H2 L30F/A48V clone 1061.

On to `CCCCCC(C)=O` [2-heptanone], for which the odorant receptor activation was 0.335 with OR2F2 A98V clone 1087; 0.985 and 0.638 in assay [1]; 0.915 in the assay with OR2G2 clone 1385; 1.09 with OR2G3 clone 1328; 0.826 with OR2G3 clone 1382; 0.969 and 0.658 in the assay with OR2G6 clone 1487. The odorant receptor activation in the assay with OR2H1 clone 1393 was determined as 0.924; in [2], 0.462; with OR2H2 clone 1066 it was 1.22; with OR2J2 T111A clone 1073 it was 1.

In the case of `O=C1CCCCCCCCCCCC(=O)OCCO1` [ethylene brassylate], the odorant receptor activation in the assay with OR2F2 A98V clone 1087 was 1.69; in assay [1], 1.31; in the assay on OR2G2 clone 1385 it was 1.32; in the assay with OR2G3 clone 1328, 1.3; in the assay on OR2G3 clone 1382 it was 1.5; in the assay with OR2G6 clone 1487, 1.38. The odorant receptor activation came to 1.68 in the assay on OR2H1 clone 1393, 1.81 in assay [2], 1.2 in the assay on OR2H2 clone 1066 and 1.15 in the assay on OR2J2 T111A clone 1073.

On to `C=CCc1ccc(OC)c(OC)c1` [eugenol methyl ether], for which the odorant receptor activation with OR2F2 A98V clone 1087 stood at 1.34; in assay [1], 1.34; in the assay with OR2G2 clone 1385, 1.81; with OR2G3 clone 1328, 1.44; in the assay with OR2G3 clone 1382, 1.39; in the assay on OR2G6 clone 1487 it was 1.36. In addition, the odorant receptor activation was 1.78 in the assay with OR2H1 clone 1393, 1.51 in [2], 1.34 in the assay on OR2H2 clone 1066 and 2.33 in the assay on OR2J2 T111A clone 1073.

For the compound `O=C1CCCCCCCCCCCCCCO1` [pentadecalactone], the odorant receptor activation in the assay with OR2F2 A98V clone 1087 was determined as 0.805; in assay [1] it was 0.771; with OR2G2 clone 1385, 1.14; with OR2G3 clone 1328, 0.851; in the assay on OR2G3 clone 1382, 1.18; in the assay on OR2G6 clone 1487, 0.773. Also, the odorant receptor activation in the assay with OR2H1 clone 1393 turned out to be 0.924; in [2] it was 0.807; in the assay on OR2H2 clone 1066 it was 1.01; in the assay with OR2J2 T111A clone 1073, 1.04.

As for `c1ccc(Oc2ccccc2)cc1` [diphenyl ether], the odorant receptor activation in the assay on OR2F2 A98V clone 1087 was 1.04; in assay [1], 0.851; in the assay with OR2G2 clone 1385, 1.06; in the assay with OR2G3 clone 1328 it was 0.869; in the assay with OR2G3 clone 1382, 0.907; in the assay with OR2G6 clone 1487 it was 1.03. Further, the odorant receptor activation is 1.02 in the assay with OR2H1 clone 1393, 1.17 in assay [2], 0.957 with OR2H2 clone 1066 and 0.902 in the assay with OR2J2 T111A clone 1073.

Turning to `CC1=NC(C)SC1C` (centres undefined), the odorant receptor activation in the assay on OR2F2 A98V clone 1087 was 0.922; in assay [1], 0.929 and 0.843; in the assay on OR2G2 clone 1385, 1.21; in the assay with OR2G3 clone 1328, 3.33; in the assay with OR2G3 clone 1382, 0.918; with OR2G6 clone 1487, 1.29 and 1.17. In addition, the odorant receptor activation stood at 1.05 with OR2H1 clone 1393, 0.721 in assay [2], 1.02 with OR2H2 clone 1066 and 1.06 with OR2J2 T111A clone 1073.

On to `CC(=O)OC(C)(C)C1CC=C(C)CC1` (centres undefined) [terpinyl acetate], for which the odorant receptor activation in the assay with OR2F2 A98V clone 1087 came to 1.28; in assay [1], 0.863; with OR2G2 clone 1385 it was 0.852; in the assay with OR2G3 clone 1328 it was 0.952; in the assay on OR2G3 clone 1382, 1.01; in the assay with OR2G6 clone 1487, 1.03. For the same compound, the odorant receptor activation came to 0.847 in the assay with OR2H1 clone 1393, 1.6 in assay [2], 1.34 in the assay on OR2H2 clone 1066 and 1.41 with OR2J2 T111A clone 1073.

`CC(C)C(=O)O` [isobutyric acid]: the odorant receptor activation was 0.807 in the assay on OR2F2 A98V clone 1087; 1.3 and 1.08 in assay [1]; 0.856 in the assay with OR2G2 clone 1385; 1.38 and 0.995 with OR2G3 clone 1328; 0.72 in the assay with OR2G3 clone 1382; 1.04 and 0.824 with OR2G6 clone 1487. The odorant receptor activation with OR2H1 clone 1393 was 0.776; in [2], 0.704; in the assay on OR2H2 clone 1066, 0.815; in the assay with OR2J2 T111A clone 1073, 1.19.

On to `CC(C)C=O` [isobutyraldehyde], for which the odorant receptor activation in the assay on OR2F2 A98V clone 1087 was 1.15; in assay [1], 1.2; in the assay with OR2G2 clone 1385 it was 0.921; with OR2G3 clone 1328 it was 1.46 and 1.1; in the assay with OR2G3 clone 1382 it was 0.819; in the assay with OR2G6 clone 1487 it was 0.866 and 1.06. For the same compound, the odorant receptor activation with OR2H1 clone 1393 was found to be 0.852; in assay [2], 0.749; with OR2H2 clone 1066, 1.34; in the assay with OR2J2 T111A clone 1073, 1.23.

Take `CCC1(O)C2(C)CCC(C2)C1(C)C` (centres undefined) [2-ethylfenchol]: the odorant receptor activation was found to be 13.9 in the assay with OR2F2 A98V clone 1087; 0.914 in assay [1]; 1.41 with OR2G2 clone 1385; 0.754 in the assay with OR2G3 clone 1328; 0.657 with OR2G3 clone 1382; 1.25 with OR2G6 clone 1487. Moreover, the odorant receptor activation with OR2H1 clone 1393 stood at 1.26; in assay [2] it was 1.96; in the assay with OR2H2 clone 1066, 4.73; with OR2J2 T111A clone 1073, 1.97.

With `CCCC(=O)O` [butyric acid], the odorant receptor activation in the assay with OR2F2 A98V clone 1087 stood at 1.3; in assay [1], 0.804; in the assay with OR2G2 clone 1385, 0.13; with OR2G3 clone 1328, 0.832; in the assay with OR2G3 clone 1382 it was 0.268; in the assay on OR2G6 clone 1487 it was 1.15. The odorant receptor activation in the assay on OR2H1 clone 1393 worked out at 0.186; in assay [2], 1.13; in the assay with OR2H2 clone 1066 it was 1.27; with OR2J2 T111A clone 1073, 1.12.

`C=CCc1ccc(O)c(OC)c1` [eugenol]: the odorant receptor activation is 0.88 and 1.47 in the assay with OR2F2 A98V clone 1087; 2.15 and 0.897 and 1.41 in assay [1]; 1.55 and 1.44 in the assay on OR2G2 clone 1385; 0.84 and 1.35 in the assay with OR2G3 clone 1328; 1.58 and 1.38 in the assay with OR2G3 clone 1382; 1.28 and 1.22 and 1.12 in the assay on OR2G6 clone 1487. Also, the odorant receptor activation was 1.51 and 1.62 in the assay on OR2H1 clone 1393; 1.94 and 1.47 in assay [2]; 1.47 and 1.32 in the assay with OR2H2 clone 1066.

For `c1cnccn1` [pyrazine], the odorant receptor activation with OR2F2 A98V clone 1087 came out at 0.731; in assay [1], 0.828; in the assay with OR2G2 clone 1385, 1.02; in the assay with OR2G3 clone 1328, 0.844; with OR2G3 clone 1382 it was 1.3; in the assay with OR2G6 clone 1487, 0.788. Besides, the odorant receptor activation in the assay with OR2H1 clone 1393 came to 0.957; in [2] it was 1.11; in the assay on OR2H2 clone 1066, 1.35; in the assay on OR2J2 T111A clone 1073, 1.04.

As to `CC12CCC(CC1)C(C)(C)O2` [cineole], the odorant receptor activation with OR2F2 A98V clone 1087 amounted to 0.769; in assay [1], 0.938; in the assay on OR2G2 clone 1385, 0.138; in the assay with OR2G3 clone 1328, 0.988; in the assay with OR2G3 clone 1382, 0.208; in the assay on OR2G6 clone 1487 it was 1.08. In addition, the odorant receptor activation worked out at 0.173 in the assay on OR2H1 clone 1393, 0.994 in [2], 0.71 in the assay with OR2H2 clone 1066 and 1.04 with OR2J2 T111A clone 1073.

For the origin of these results see the odorant receptor screen of Mainland et al. (2015).
